# In patent US5597705:
# System: thyroid hormone (T3) receptor, GC2 nuclear extract (Rattus norvegicus)
# Assay: footprint
# Conditions: DNase I protection of antisense strand -179 to -164 with crude GC2 nuclear extract; protein in an extract
sequence,measurement,value
CAGGGACGTGACCGCA (double strand) [rat GH T3 receptor footprint -179 to -164],binding result,binds

# The exact form of at least one protein or probe is not confirmed. Where cells or extracts were used, other partners may take part.
